Reference: US20070087344A1, “Methods for characterizing signaling pathways and compounds that interact therewith” (BIOSEEK, INC., priority 2003, published 2007)
At least one structure is not confirmed: it was looked up by name or label, or the drawing left a doubt.

Tests used:
Format in all cases: cell-based, human
[1] = test system: HUVEC cell lines over-expressing RELA; test: VCAM-1 expression (ELISA) in HUVEC over-expressing RELA
[2] = test system: HUVEC cell lines over-expressing IKBKB; test: VCAM-1 expression (ELISA) in HUVEC over-expressing IKBKB
[3] = test system: HUVEC cell lines over-expressing TNF-alpha; test: VCAM-1 expression (ELISA) in HUVEC over-expressing TNF-alpha

Oc1c2ccccc2c2c3c(cccc13)N=N2 [SP600125]
inhibits all three: Inhibition of RELA induced VCAM-1 expression [1] | Inhibition of IKBKB induced VCAM-1 expression [2] | Inhibition of TNF-alpha induced VCAM-1 expression [3]
